Reference: patent publication US20230404968A1, “Gamma Butyrolactone Derivatives for Inducing Differentiation in Neoplastic Cells” (priority 2022, published 2023)
Some results were stated once for a whole list of compounds, not compound by compound.

Tests used:
HL60 cells [1] = assay: Cell viability (MTS) assay, HL60; settings: HL60 cell line; cell viability and apoptosis/necrosis analysis
Procedure: (§1) Cell culture methods and treatments. HL60 and KG1a cell lines were cultivated in RPMI 1640 (Sigma-USA) culture medium supplemented with 1% penicillin/streptomycin (Gibco-USA), 10% and 20% fetal bovine serum (Gibco-USA) for HL60 and KG1a cell lines, respectively, and 0.5% Glutamax (Gibco-USA) for HL60 cell line. The cells were incubated at 37° C., 5% CO2, and 90% humidity. The stock solution (Mol/L) of HSL-C8, HSL-C12, and A-factor were prepared in 0.1% (v/v) and 0.2% (v/v) and 0.2% (v/v) DMSO, respectively, as a vehicle and stored at −80° C. Different dilutions of HSL-C8, HSL-C12, A-factor, and GBL were prepared from the stock solution, and […] (<4% of the total volume) of each were added to the wells containing 100 μL of cell suspension (10000 and 20000 HL60 and KG1a cells per well). 0.1% and 0.2% DMSO were used as the negative control for HSL-C8, HSL-C12, and A-factor for each test. Culture medium were used as the negative control for GBL.
(§2) Cell viability assay. The cell viability was evaluated via (MTS) assay. HL60, KG1a, and PBMC cells were treated with HSL-C8, HSL-C12, A-factor, and GBL in 96-well plates for 24, 48, and 72 hours. […] The optical density (OD) of samples was measured via spectrophotometer (EPOCH, BioTek, USA) at 490 nm and the viability of cells was calculated via the following formula: […]

KG1a cells [2] = assay: Cell viability (MTS) assay, KG1a; settings: KG1a cell line; cell viability and apoptosis/necrosis analysis
Procedure: as §1, §2

KG1a cells [3] = assay: Apoptosis/necrosis by flow cytometry, Annexin-V-FITC/PI staining, KG1a; format: cell-based; settings: KG1a cells (FIGS. 3A-D and 4A-D)
Procedure: (§3) Cell culture methods and treatments.
(§4) Flow cytometry. […] In addition, treated cells were incubated with antibody-dye conjugate against CD3, CD20, CD16, CD56, CD14, and CD33 for surface antigen analysis. Thereafter the samples were analyzed by flow cytometer (Attune NxT, Life Technologies-Thermo Fisher Scientific, USA). Treatment with 5 μL H2O2 and 1 μM ATRA were used as the positive controls for apoptosis and necrosis and surface antigen analyses, respectively. Data were analyzed with FlowJo software.

HL60 cells [4] = assay: Apoptosis/necrosis by flow cytometry, Annexin-V-FITC/PI staining, HL60; format: cell-based; settings: HL60 cells (FIGS. 3A-D and 4A-D)
Procedure: as §3, §4

Row | Compound | concentration at which minimal toxicity was demonstrated (HL60 cells [1]) | concentration at which minimal toxicity was demonstrated (KG1a cells [2]) | concentrations that cause minimal to no apoptosis (KG1a cells [3]) [µM] | concentrations that cause minimal to no apoptosis (HL60 cells [4]) [µM]
1 | CCCCCC(=O)CC(=O)N[C@H]1CCOC1=O [HSL-C8] | below 150 μM | below 150 μM | – | –
2 | CCCCCCCCCC(=O)CC(=O)N[C@H]1CCOC1=O [HSL-C12] | below 150 μM | below 150 μM | ≤ 100 | ≤ 100
